Reference: PubChem BioAssay AID686938 (Drosophila RNAi Screening Center, 2013)

Assay: 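Fly genes required for calcium entry once internal stores are emptied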 (primary screen)
System: Drosophila S2R+ cells
Reagents: long dsRNA against Drosophila genes, about 0.25 µg dsRNA per well, roughly 10,000 cells
Time to read-out: 5 days of knock-down before the calcium assay
Conditions: thapsigargin (SERCA pump blocker) to empty calcium stores; entry signal taken 4 min after adding it
Detection: 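Per-well fluo-4 fluorescence in two replicates, unnormalised, measured in resting cells and 4 min after store depletion by the SERCA blocker thapsigargin; ratio of the two present in few wells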
Scale: calcium entry signal: higher = stronger calcium signal after store depletion; entry to resting ratio: higher = more calcium entry relative to resting level; resting calcium signal: higher = higher resting calcium signal
Units: calcium entry signal in fluorescence units; resting calcium signal in fluorescence units
Call rule: 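Called when the plate z-score of the entry-to-rest ratio, mean of duplicates, falls below −3; wells with low overall dye signal (Fmax z below −2) or more than five off-targets excluded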
Meaning of the calls: active = strongly reduced calcium entry; inactive = no strong reduction
The deposit covers about 23,000 reagents; this is an unselected part of those with a known target gene and a result. In the full data, 75 (0.33%) are marked active. 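Raw plate signals without normalisation; calls rest on plate z-scores that were not deposited; ratio present for only 364 wells.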 Not given: the dose of the treatment.

{"predicted target":"Parp1","dsRNA":"DRSC07725","calcium entry signal, replicate 1":2.75e7,"calcium entry signal, replicate 2":6.61e7,"resting calcium signal, replicate 1":1.24e7,"resting calcium signal, replicate 2":2.95e7,"activity call":"inactive"}
{"predicted target":"Parp1","dsRNA":"DRSC07778","calcium entry signal, replicate 1":2.97e7,"calcium entry signal, replicate 2":3.24e7,"resting calcium signal, replicate 1":1.59e7,"resting calcium signal, replicate 2":1.42e7,"activity call":"inactive"}
{"predicted target":"Parp1","dsRNA":"DRSC07780","calcium entry signal, replicate 1":2.87e7,"calcium entry signal, replicate 2":3.12e7,"resting calcium signal, replicate 1":1.48e7,"resting calcium signal, replicate 2":1.35e7,"activity call":"inactive"}
{"predicted target":"EMC10","dsRNA":"DRSC11850","calcium entry signal, replicate 1":2.62e7,"calcium entry signal, replicate 2":3.96e7,"resting calcium signal, replicate 1":1.22e7,"resting calcium signal, replicate 2":1.63e7,"activity call":"inactive"}
{"predicted target":"mask","dsRNA":"DRSC15370","calcium entry signal, replicate 1":5.14e7,"calcium entry signal, replicate 2":7.36e7,"resting calcium signal, replicate 1":3.22e7,"resting calcium signal, replicate 2":3.71e7,"activity call":"inactive"}
{"predicted target":"mask","dsRNA":"DRSC16005","calcium entry signal, replicate 1":3.13e7,"calcium entry signal, replicate 2":3.49e7,"resting calcium signal, replicate 1":1.98e7,"resting calcium signal, replicate 2":2.16e7,"activity call":"inactive"}
{"predicted target":"mask","dsRNA":"DRSC16018","calcium entry signal, replicate 1":3.13e7,"calcium entry signal, replicate 2":3.61e7,"resting calcium signal, replicate 1":1.90e7,"resting calcium signal, replicate 2":2.09e7,"activity call":"inactive"}
{"predicted target":"ATP6 (retired record)","dsRNA":"DRSC21278","calcium entry signal, replicate 1":3.11e7,"calcium entry signal, replicate 2":4.11e7,"resting calcium signal, replicate 1":1.91e7,"resting calcium signal, replicate 2":2.04e7,"activity call":"inactive"}
{"predicted target":"CG14118","dsRNA":"DRSC10122","calcium entry signal, replicate 1":2.73e7,"calcium entry signal, replicate 2":4.39e7,"resting calcium signal, replicate 1":1.54e7,"resting calcium signal, replicate 2":1.83e7,"activity call":"inactive"}
{"predicted target":"Ppr-Y","dsRNA":"DRSC20892","calcium entry signal, replicate 1":3.31e7,"calcium entry signal, replicate 2":3.94e7,"resting calcium signal, replicate 1":1.53e7,"resting calcium signal, replicate 2":1.77e7,"activity call":"inactive"}
{"predicted target":"scra","dsRNA":"DRSC07679","calcium entry signal, replicate 1":1.57e7,"calcium entry signal, replicate 2":2.06e7,"resting calcium signal, replicate 1":9.75e6,"resting calcium signal, replicate 2":1.04e7,"activity call":"inactive"}
{"predicted target":"cDIP","dsRNA":"DRSC14267","calcium entry signal, replicate 1":5.52e7,"calcium entry signal, replicate 2":4.16e7,"resting calcium signal, replicate 1":2.66e7,"resting calcium signal, replicate 2":1.83e7,"activity call":"inactive"}
{"predicted target":"CG4186","dsRNA":"DRSC11753","calcium entry signal, replicate 1":2.82e7,"calcium entry signal, replicate 2":5.48e7,"resting calcium signal, replicate 1":1.41e7,"resting calcium signal, replicate 2":2.18e7,"activity call":"inactive"}
{"predicted target":"CG11112","dsRNA":"DRSC06038","calcium entry signal, replicate 1":3.38e7,"calcium entry signal, replicate 2":3.72e7,"resting calcium signal, replicate 1":1.58e7,"resting calcium signal, replicate 2":1.64e7,"activity call":"inactive"}
{"predicted target":"QIL1","dsRNA":"DRSC10888","calcium entry signal, replicate 1":2.03e7,"calcium entry signal, replicate 2":3.56e7,"resting calcium signal, replicate 1":1.21e7,"resting calcium signal, replicate 2":1.88e7,"activity call":"inactive"}
{"predicted target":"eIF2Bepsilon","dsRNA":"DRSC18769","calcium entry signal, replicate 1":3.06e7,"calcium entry signal, replicate 2":3.34e7,"resting calcium signal, replicate 1":1.38e7,"resting calcium signal, replicate 2":1.56e7,"activity call":"inactive"}
{"predicted target":"CG1674","dsRNA":"DRSC17107","calcium entry signal, replicate 1":4.11e7,"calcium entry signal, replicate 2":3.54e7,"resting calcium signal, replicate 1":1.88e7,"resting calcium signal, replicate 2":1.40e7,"activity call":"inactive"}
{"predicted target":"CG1674","dsRNA":"DRSC17142","calcium entry signal, replicate 1":3.41e7,"calcium entry signal, replicate 2":4.93e7,"entry to resting ratio":2.2,"resting calcium signal, replicate 1":1.54e7,"resting calcium signal, replicate 2":1.95e7,"activity call":"inactive"}
{"predicted target":"CR18166","dsRNA":"DRSC17260","calcium entry signal, replicate 1":5.76e7,"calcium entry signal, replicate 2":3.21e7,"resting calcium signal, replicate 1":2.85e7,"resting calcium signal, replicate 2":1.80e7,"activity call":"inactive"}
{"predicted target":"CR18166","dsRNA":"DRSC18147","calcium entry signal, replicate 1":2.05e7,"calcium entry signal, replicate 2":2.46e7,"entry to resting ratio":1.9,"resting calcium signal, replicate 1":1.09e7,"resting calcium signal, replicate 2":1.23e7,"activity call":"inactive"}
{"predicted target":"Ogdh","dsRNA":"DRSC09854","calcium entry signal, replicate 1":1.95e7,"calcium entry signal, replicate 2":3.07e7,"resting calcium signal, replicate 1":9.32e6,"resting calcium signal, replicate 2":1.90e7,"activity call":"inactive"}
{"predicted target":"Ogdh","dsRNA":"DRSC09855","calcium entry signal, replicate 1":3.55e7,"calcium entry signal, replicate 2":4.53e7,"resting calcium signal, replicate 1":1.80e7,"resting calcium signal, replicate 2":1.67e7,"activity call":"inactive"}

No new results follow: an excerpt of the list.
{"predicted target":"CG14118","dsRNA":"DRSC10122","calcium entry signal, replicate 1":2.73e7,"calcium entry signal, replicate 2":4.39e7,"resting calcium signal, replicate 1":1.54e7,"resting calcium signal, replicate 2":1.83e7,"activity call":"inactive"}
{"predicted target":"Ppr-Y","dsRNA":"DRSC20892","calcium entry signal, replicate 1":3.31e7,"calcium entry signal, replicate 2":3.94e7,"resting calcium signal, replicate 1":1.53e7,"resting calcium signal, replicate 2":1.77e7,"activity call":"inactive"}
{"predicted target":"scra","dsRNA":"DRSC07679","calcium entry signal, replicate 1":1.57e7,"calcium entry signal, replicate 2":2.06e7,"resting calcium signal, replicate 1":9.75e6,"resting calcium signal, replicate 2":1.04e7,"activity call":"inactive"}
